± gives the standard deviation. This is a selection; strong and weak results do not stand in their true shares. Many of these values have a large error.
Tested on: MIWI (PIWIL1) piRISC loaded with L1MC piRNA (30 nt)
Experiment: pre-steady-state target cleavage rate (min^-1); MIWI and MILI are mouse PIWI proteins and EfPiwi is from a freshwater sponge; tags in brackets are library labels; higher = faster piRNA-guided slicing of the target
Conditions: guide: L1MC piRNA 5'p-UAACUAAAUACUAUGCAAGCUGUAGGUCCU
Summary of the method: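 Reactions were run for 0–8 or 0–960 min at 33 °C in HEPES–potassium acetate buffer, combining 1 nM active affinity-purified piRISC with one synthetic guide, […] transcribed, DNA-blocked target RNA library and, in some cases, 500 nM GTSF1 partner protein. Sequencing of uncleaved targets followed, with normalisation to depth and to weakly complementary targets. Three trials were pooled, k3 was capped at 0.0001 min^-1, and the pre-steady-state cleavage rate was taken from a burst-and-steady-state fit.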

[1] = auxiliary factor: 500 nM mouse GTSF1
[2] = auxiliary factor: none (no GTSF1)
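Note: 1 nM active piRISC with 0.1 nM target library at 33 °C single turnover.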

Sequence | pre-steady-state target cleavage rate [1] | pre-steady-state target cleavage rate [2]
UGGACCUACAGCUUCCAUAGUAUUUUCAAA | 0.00202 ± 0.0044 | 0.000626 ± 0.0042
UGGACCUACAGCUACCAUAGUAUUUAGUUA | 0.493 ± 0.043 | 0.00241 ± 0.0021
UCCUGGAUGUCCUUGCAUAUAUUUAGUUA | 0.00326 ± 0.005 | 0.00158 ± 0.0049
UCGACCUUCAGCUUGCAUAGUAUUUAGUUA | 1.51 ± 0.047 | 0.0696 ± 0.012
UCCUGGAUGUCGAAGCAUAGUUUUUUGUUA | 0.00084 ± 0.0088 | 0.000636 ± 0.0092
UCGAGGUACAGCUUGCAUAGUAUUUAGUUA | 1.04 ± 0.066 | 0.0604 ± 0.0095
UCGUCCUACUGCUUGCAUAGUAUUUAGUUA | 1.14 ± 0.048 | 0.0572 ± 0.0094
UCGAGCUUCAGCUUGCAUAGUAUUUAGUUA | 1.12 ± 0.046 | 0.0555 ± 0.0099
AGCUGCUACAGCUUGCAUAGUAUUUAGUAA | 0.977 ± 0.11 | 0.0202 ± 0.0038
UGGACCUACAGCUUGCAUACAUUUUAGAAA | 0.00165 ± 0.0053 | 0.00023 ± 0.012
UGGACCUACAGCAUCCAUAGUAUUUAGUUA | 0.102 ± 0.017 | 0.00273 ± 0.002
UCCUGGAACAGCUGCAUAGUAUUUAGUUA | 0.767 ± 0.044 | 0.00757 ± 0.0034
AGCACCUACAGCUUGGAUAGUAUUUAGUUA | 0.99 ± 0.049 | 0.0433 ± 0.0065
UCGACCAUACAGCUUGCAUAGUAUUUAGUUA | 0.86 ± 0.039 | 0.0901 ± 0.015
UGGACCUACAGCUUGCAUACAUUUUACAAA | 0.00122 ± 0.006 | 0.000487 ± 0.009
UGGACCUACAGCUUGCAUACAUUUUAGUAA | 0.00226 ± 0.0047 | 0.000255 ± 0.011
UGGACGCUACAGCUUGCAUAGUAUUUAGUUA | 1.15 ± 0.076 | 0.0759 ± 0.013
UCGACCUACAGCUUGCUAUAGUAUUUAGUUA | 0.0661 ± 0.018 | 0.0011 ± 0.0071
UCCUCCUACAGCUUGUCAUAGUAUUUAGUUA | 0.44 ± 0.046 | 0.0017 ± 0.0027

Sequence | pre-steady-state target cleavage rate [1] | pre-steady-state target cleavage rate [2]
UCGACAUACAGCUUGCAUAGUAUUUAGUUA | 1.38 ± 0.043 | 0.071 ± 0.012
UCGACGUACAGCUUGGAUAGUAUUUAGUUA | 1.24 ± 0.042 | 0.0503 ± 0.0083
AGGACCUACAGCAUGCAUAGUAUUUACAAA | 0.526 ± 0.066 | 0.00349 ± 0.0032
AGGACCUACAGCUUGCAUAGUAUUUAAUUA | 0.357 ± 0.033 | 0.0325 ± 0.0055
UCGACCUACAGCAUGCAUAGUAUUUAGUAA | 0.99 ± 0.072 | 0.0189 ± 0.0064
AGGACCUACACGCUUGCAUAGUAUUUAGUUA | 1.1 ± 0.065 | 0.0703 ± 0.01
UGGACUUACAGCUUGCAUAGUAUUUAGUUA | 1.45 ± 0.063 | 0.081 ± 0.013
UCGACCUACAGCAAGCAUAGUAUUUAGUAA | 0.818 ± 0.066 | 0.00275 ± 0.0026
UGGAUCUACAGCUUGCAUAGUAUUUAGUUA | 1.57 ± 0.062 | 0.0958 ± 0.019
AGGCCCUACAGCUUGCAUAGUAUUUAGUUA | 1.15 ± 0.058 | 0.115 ± 0.018
UCGACCUACAGCUUGCUUAGUAUUUAGUAA | 1.02 ± 0.068 | 0.0176 ± 0.005
UGGACCUACAGGUUGCAAAGUAUUUAGUUA | 1.33 ± 0.082 | 0.02 ± 0.0043
UGGACCUGCAGCUUGCAUAGUAUUUAGUUA | 1.57 ± 0.099 | 0.0683 ± 0.013
UGGACCUACAGCUUGGAUAGUAUUUAGAAA | 0.342 ± 0.047 | 0.0107 ± 0.003
UCCUGGUCCAGCUUGCAUAGUAUUUAGUUA | 0.717 ± 0.055 | 0.0383 ± 0.0079
UCCUGGAUGUGCUUGCAUUGUUUUUAGUUA | 0.0048 ± 0.0031 | 0.00283 ± 0.004
UGGUCCUACUGCUUGCAUAGUAUUUAGUUA | 1.22 ± 0.05 | 0.0687 ± 0.01
UCGACCUACAGCUUGCAUAGUAUUUAGUA | 0.778 ± 0.039 | 0.0159 ± 0.0051
UGGACCUACAGCUUCAUAGUAUUUAGUUA | 1.36 ± 0.077 | 0.0221 ± 0.0047

Part of the list above, tab-delimited:
Sequence	pre-steady-state target cleavage rate [1]	pre-steady-state target cleavage rate [2]
AGGACCUACACGCUUGCAUAGUAUUUAGUUA	1.1 ± 0.065	0.0703 ± 0.01
UGGACUUACAGCUUGCAUAGUAUUUAGUUA	1.45 ± 0.063	0.081 ± 0.013
UCGACCUACAGCUUGCUUAGUAUUUAGUAA	1.02 ± 0.068	0.0176 ± 0.005
UCCUGGUCCAGCUUGCAUAGUAUUUAGUUA	0.717 ± 0.055	0.0383 ± 0.0079

(next part)

Sequence | pre-steady-state target cleavage rate [1] | pre-steady-state target cleavage rate [2]
UCCUGGAUGUCGAACGUUAGUUUUAAGUUA | 0.000319 ± 0.013 | 0.000351 ± 0.012
UGGACAUACAGCUUGCAUAGUAUUUAGUUA | 1.23 ± 0.05 | 0.0916 ± 0.014
UCGACCUACAGCUUGCAUAGUAAUAAGUUA | 0.444 ± 0.047 | 0.002 ± 0.0034
UGGACCUACAGCUUGCAUAGAAUUUUCAAA | 0.239 ± 0.048 | 0.00132 ± 0.006
UGGACCAACAGCUUGCAAAGUAUUUAGUUA | 1.38 ± 0.062 | 0.0368 ± 0.0072
UGGACCUACAGAUUGCAUAGUAUUUAGUUA | 1.12 ± 0.11 | 0.042 ± 0.0077
UCCUGGAUGUCCUUACAUAGUAUUUAGUUA | 0.0237 ± 0.0056 | 0.0041 ± 0.0017
UCGACCACAGCUUGCAUAGUAUUUAGUUA | 1.22 ± 0.051 | 0.0643 ± 0.011
UGGACCUACAGCUUGCAUAGUAUUUCGUUA | 0.411 ± 0.054 | 0.0397 ± 0.0067
UCCACCUACAGCUUGGAUAGUAUUUAGUUA | 1.44 ± 0.056 | 0.0469 ± 0.0082
AGGACGAACAGCUUGCAUAGUAUUUAGUUA | 1.27 ± 0.045 | 0.084 ± 0.016
UCGACCAACAGGUUGCAUAGUAUUUAGUUA | 1.16 ± 0.049 | 0.0326 ± 0.006
UCGACCUACACCUUGCAUAGUAUUUACUUA | 0.254 ± 0.034 | 0.0244 ± 0.0036
AGCGACCUACAGCUUGCAUAGUAUUUAGUUA | 1.37 ± 0.049 | 0.112 ± 0.019
UGAACCUACAGCUUGCAUAGUAUUUAGUUA | 1.63 ± 0.068 | 0.0751 ± 0.015
AGAGACCUACAGCUUGCAUAGUAUUUAGUUA | 1.46 ± 0.067 | 0.091 ± 0.017
AGGACCUACAGCUUGCAUAGAUUUUAGAAA | 0.247 ± 0.071 | 0.00123 ± 0.0069
AGCACGUACAGCUUGCAUAGUAUUUAGUUA | 1.28 ± 0.043 | 0.064 ± 0.011
